The subject of data set [1] is scasRap1-DBD (crude E. coli extract) (Saccharomyces castellii Y320). Put plainly: competition EMSA. To be noted: 2000x competitor; 10 mM Tris-HCl pH 7.5, 7 mM MgCl2, 8% glycerol, 10 fmol probe, 1 ug poly(dI-dC) or 1.5 ug E. coli gDNA/yeast tRNA/salmon sperm DNA mix, 15 min 25 C; gel 1xTBE at 4 C; protein in a lysate after overexpression; protein details: GST fusion (56 kDa, uncleaved in crude extract). Background: Mobility shift assays separate free from complexed probe on a gel.

For data set [2], the system named is scasRap1 full-length (Saccharomyces castellii). Put plainly: competition EMSA. The conditions noted are these: 1000x competitor, 10 mM Tris-HCl pH 7.5, 7 mM MgCl2, 8% glycerol, 10 fmol probe, 1 ug poly(dI-dC) or 1.5 ug E. coli gDNA/yeast tRNA/salmon sperm DNA mix, 15 min 25 C, gel 1xTBE at 4 C, recombinant protein.
Data set [3] relates to scasRap1-DBD (purified) (Saccharomyces castellii Y320). Description: EMSA. To be noted: 10 mM Tris-HCl pH 7.5, 7 mM MgCl2, 8% glycerol, 10 fmol probe, 1 ug poly(dI-dC) or 1.5 ug E. coli gDNA/yeast tRNA/salmon sperm DNA mix, 15 min 25 C, gel 1xTBE at 4 C, recombinant protein.
Data set [4] concerns scasRap1 full-length (Saccharomyces castellii). Put plainly: EMSA. To be noted: 10 mM Tris-HCl pH 7.5, 7 mM MgCl2, 8% glycerol, 10 fmol probe, 1 ug poly(dI-dC) or 1.5 ug E. coli gDNA/yeast tRNA/salmon sperm DNA mix, 15 min 25 C, gel 1xTBE at 4 C, recombinant protein.
Data set [5] relates to scasRap1-DBD (crude E. coli extract) (Saccharomyces castellii Y320). Put plainly: EMSA. To be noted: crude extract; 10 mM Tris-HCl pH 7.5, 7 mM MgCl2, 8% glycerol, 10 fmol probe, 1 ug poly(dI-dC) or 1.5 ug E. coli gDNA/yeast tRNA/salmon sperm DNA mix, 15 min 25 C; gel 1xTBE at 4 C; protein in a lysate after overexpression; protein details: GST fusion (56 kDa, uncleaved in crude extract); label: 32P 5' forward strand when probe.

Setting [6] is: label: 32P 5' forward strand when probe.

Construct, isoform or probe ends are uncertain for at least one entry. For some of these results: Negatives hold for the conditions tested. For some of these results: The comparison behind a weaker result is the experiment's own reference, which may not be listed here. For some of these results: At least one result comes from cells or an extract, where the contact may be indirect. For some of these results: At least one verdict rests on a figure or table, not on a statement of the authors.

In the case of “CGGTGTCTGGGTGT (double strand) [Scast14C1]”, the binding result in data set [1] is given as “binds”.

On to “GCGTGTCTGGGTGT (double strand) [Scast14C2]”, for which the binding result in data set [2] and in data set [1] was “binds more weakly” throughout.

As to “GGCTCTCTGGGTGT (double strand) [Scast14C3]”, the binding result in data set [2] and in data set [1] was “binds more weakly” each time.

As for “GGGAGTCTGGGTCT (double strand) [Scast14C4]”, the binding result in data set [2] (most severe group) and in data set [1] was “binds more weakly” in each case.

On to “GGGTCTCTGGCTGT (double strand) [Scast14C11]”, for which the binding result in data set [2] (most severe group) and in data set [1] was “binds more weakly” each time.

As to “GGGTCTCTGGGTGT (double strand) [Scast14C5]”, the binding result in data set [2] (most severe group) and in data set [1] was “binds more weakly” throughout.

Take “GGGTCTGTGGGTGT (double strand) [Scast14C7]”: the binding result in data set [2] and in data set [1] was “binds” in each case.

“GGGTGACTGGGTGT (double strand) [Scast14C6]”: the binding result in data set [2] and in data set [1] was “binds more weakly” throughout.

“GGGTGTCAGGGTCT (double strand) [Scast14C8]”: the binding result in data set [2] (most severe group) and in data set [1] was “binds more weakly” in each case.

For the sequence “GGGTGTCTCGGTGT (double strand) [Scast14C9]”, the binding result in data set [2] (most severe group) and in data set [1] was “binds more weakly” each time.

In the case of “GGGTGTCTGCGTGT (double strand) [Scast14C10]”, the binding result in data set [2] (most severe group) and in data set [1] was “binds more weakly” in each case.

With GGGTGTCTGGG (double strand) [Scast11C], the binding result in data set [3] (label: 32P 5' forward strand) and in data set [4] (label: 32P 5' forward strand) was “no binding” in each case.

With “GGGTGTCTGGGACT (double strand) [Scast14C12]”, the binding result in data set [1] is reported as “binds more weakly”.

As to “GGGTGTCTGGGT (double strand) [Scast12C (MBS)]”, the binding result in data set [3] (label: 32P 5' forward strand) and in data set [4] (label: 32P 5' forward strand) was “binds” throughout.

In the case of “GGGTGTCTGGGTCT (double strand) [Scast14C13]”, in data set [1], the binding result is “binds more weakly”.

As for “GGGTGTCTGGGTGA (double strand) [Scast14C14]”, the binding result in data set [1] is “binds”.

Take “GGGTGTCTGGGTGT (double strand) [Scast14C]”: the binding result in data set [3] (setting [6]) and in data set [4] (setting [6]) was “binds” in each case.

Take GGTGTCTGGGTG (double strand) [Scast12F]: the binding result in data set [3] (label: 32P 5' forward strand) and in data set [4] (label: 32P 5' forward strand) was “no binding” throughout.

Consider “GGTGTCTGGGTGTCTG (double strand) [Scast16F]”, for which the binding result in data set [3] (label: 32P 5' forward strand) and in data set [4] (label: 32P 5' forward strand) was “binds” in each case.

As for “GTGTCTGGGTGTCTGGGTG (double strand) [Scast19F]”, the binding result in data set [3] (setting [6]), in data set [4] (setting [6]) and in data set [5] was “binds” each time.
